# Numbering of substitutions follows the chain as printed. The list shows a part of the results. At the low end of the ranking, values are background and their order means little.
# Experiments:
# Settings in all cases: yeast three-hybrid, YBZ-1, SC-Leu-His + 0.5 mM 3-AT, 4 days
# [1] = target: T1, PUM1 PUF domain R1-FAR S863F + R864A + Q867R (UniProt Q14671)
# T1 sequence: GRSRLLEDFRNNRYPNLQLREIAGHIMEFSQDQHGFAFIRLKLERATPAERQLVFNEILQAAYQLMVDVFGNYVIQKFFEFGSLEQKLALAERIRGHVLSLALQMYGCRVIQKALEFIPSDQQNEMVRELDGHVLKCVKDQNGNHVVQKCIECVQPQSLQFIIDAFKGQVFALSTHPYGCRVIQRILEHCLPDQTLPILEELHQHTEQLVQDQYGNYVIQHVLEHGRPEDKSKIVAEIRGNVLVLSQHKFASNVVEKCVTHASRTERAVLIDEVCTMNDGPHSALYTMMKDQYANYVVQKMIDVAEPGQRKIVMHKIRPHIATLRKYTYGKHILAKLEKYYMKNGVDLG
# [2] = target: T2, PUM1 PUF domain R1-FGR S863F + R864G + Q867R (UniProt Q14671)
# T2 sequence: T1 sequence with A37G
# [3] = target: T3, PUM1 PUF domain R1-GRS S863G + Q867S (UniProt Q14671)
# T3 sequence: T1 sequence with F36G, A37R, R40S
# [4] = target: T4, PUM1 PUF domain R1-GWR S863G + R864W + Q867R (UniProt Q14671)
# T4 sequence: T1 sequence with F36G, A37W
# [5] = target: T5, PUM1 PUF domain R1-IWR S863I + R864W + Q867R (UniProt Q14671)
# T5 sequence: T1 sequence with F36I, A37W
# [6] = target: T6, PUM1 PUF domain R1-KCS S863K + R864C + Q867S (UniProt Q14671)
# T6 sequence: T1 sequence with F36K, A37C, R40S
# [7] = target: T7, PUM1 PUF domain R1-KSR S863K + R864S + Q867R (UniProt Q14671)
# T7 sequence: T1 sequence with F36K, A37S
# [8] = target: T8, PUM1 PUF domain R1-LWK S863L + R864W + Q867K (UniProt Q14671)
# T8 sequence: T1 sequence with F36L, A37W, R40K
# [9] = target: T9, PUM1 PUF domain R1-NFV S863N + R864F + Q867V (UniProt Q14671)
# T9 sequence: T1 sequence with F36N, A37F, R40V
# [10] = target: T10, PUM1 PUF domain R1-NIG S863N + R864I + Q867G (UniProt Q14671)
# T10 sequence: T1 sequence with F36N, A37I, R40G
# [11] = target: T11, PUM1 PUF domain R1-QRR S863Q + Q867R (UniProt Q14671)
# T11 sequence: T1 sequence with F36Q, A37R
# [12] = target: T12, PUM1 PUF domain R1-QVK S863Q + R864V + Q867K (UniProt Q14671)
# T12 sequence: T1 sequence with F36Q, A37V, R40K
# [13] = target: T13, PUM1 PUF domain R1-QWR S863Q + R864W + Q867R (UniProt Q14671)
# T13 sequence: T1 sequence with F36Q, A37W
# [14] = target: T14, PUM1 PUF domain R1-RCL S863R + R864C + Q867L (UniProt Q14671)
# T14 sequence: T1 sequence with F36R, A37C, R40L
# [15] = target: T15, PUM1 PUF domain R1-RFI S863R + R864F + Q867I (UniProt Q14671)
# T15 sequence: T1 sequence with F36R, A37F, R40I
# [16] = target: T16, PUM1 PUF domain R1-RRC S863R + Q867C (UniProt Q14671)
# T16 sequence: T1 sequence with F36R, A37R, R40C
# [17] = target: T17, PUM1 PUF domain R1-TLR S863T + R864L + Q867R (UniProt Q14671)
# T17 sequence: T1 sequence with F36T, A37L
# [18] = target: T18, PUM1 PUF domain R1-TSR S863T + R864S + Q867R (UniProt Q14671)
# T18 sequence: T1 sequence with F36T, A37S
# [19] = target: T19, PUM1 PUF domain R1-TVR S863T + R864V + Q867R (UniProt Q14671)
# T19 sequence: T1 sequence with F36T, A37V
# [20] = target: T20, PUM1 PUF domain R1-YSR S863Y + R864S + Q867R (UniProt Q14671)
# T20 sequence: T1 sequence with F36Y, A37S
sequence,measurement,setting,value
GGCUAGAACUAGUGGAUCCCCCGGCGCCCGGCGGCUCGAGCCCGGGUAAGUGUAAAUGGUCUGCAUGCCGCCGGGCGCCAUGCCUGCAGGUCGACUCUAGAAAACAUG,binding signal (log2 enrichment (interaction score)),[1],-3.67
same,binding signal (log2 enrichment (interaction score)),[2],-3.04
same,binding signal (log2 enrichment (interaction score)),[3],-4.25
same,binding signal (log2 enrichment (interaction score)),[4],-4.24
same,binding signal (log2 enrichment (interaction score)),[5],-2.95
same,binding signal (log2 enrichment (interaction score)),[6],-8.13
same,binding signal (log2 enrichment (interaction score)),[7],-2.37
same,binding signal (log2 enrichment (interaction score)),[8],-5.55
same,binding signal (log2 enrichment (interaction score)),[9],-3.34
same,binding signal (log2 enrichment (interaction score)),[10],< -6.56
same,binding signal (log2 enrichment (interaction score)),[11],-2.7
same,binding signal (log2 enrichment (interaction score)),[12],-2.43
same,binding signal (log2 enrichment (interaction score)),[13],-2.89
same,binding signal (log2 enrichment (interaction score)),[14],-3.05
same,binding signal (log2 enrichment (interaction score)),[15],< -6.36
same,binding signal (log2 enrichment (interaction score)),[16],-3.18
same,binding signal (log2 enrichment (interaction score)),[17],-3.21
same,binding signal (log2 enrichment (interaction score)),[18],-3.45
same,binding signal (log2 enrichment (interaction score)),[19],-2.43
same,binding signal (log2 enrichment (interaction score)),[20],-6.36

# Exported tab-delimited: entries from further up.
sequence	measurement	setting	value
GGCUAGAACUAGUGGAUCCCCCGGCGCCCGGCGGCUCGAGCCCGGGUAAGUGUAAAUGGUCUGCAUGCCGCCGGGCGCCAUGCCUGCAGGUCGACUCUAGAAAACAUG	binding signal (log2 enrichment (interaction score))	[3]	-4.25
same	binding signal (log2 enrichment (interaction score))	[4]	-4.24
